Experimental findings from PMC12274614, “Scavenger receptor CD163 multimerises to allow uptake of diverse ligands” (Nature Communications, 2025) are described below.

Protein sequences, listed by entry. Tags and fused reporters are not part of them. Lines headed by an entry give the natural chain unless they say otherwise; changes in a name come on top. Chains listed by the source or under a name are the forms on record and can include a tag or linker. Residues count along the entry.
CD163 ectodomain (CD163-WT) (Q86VB7, residues 46-1050): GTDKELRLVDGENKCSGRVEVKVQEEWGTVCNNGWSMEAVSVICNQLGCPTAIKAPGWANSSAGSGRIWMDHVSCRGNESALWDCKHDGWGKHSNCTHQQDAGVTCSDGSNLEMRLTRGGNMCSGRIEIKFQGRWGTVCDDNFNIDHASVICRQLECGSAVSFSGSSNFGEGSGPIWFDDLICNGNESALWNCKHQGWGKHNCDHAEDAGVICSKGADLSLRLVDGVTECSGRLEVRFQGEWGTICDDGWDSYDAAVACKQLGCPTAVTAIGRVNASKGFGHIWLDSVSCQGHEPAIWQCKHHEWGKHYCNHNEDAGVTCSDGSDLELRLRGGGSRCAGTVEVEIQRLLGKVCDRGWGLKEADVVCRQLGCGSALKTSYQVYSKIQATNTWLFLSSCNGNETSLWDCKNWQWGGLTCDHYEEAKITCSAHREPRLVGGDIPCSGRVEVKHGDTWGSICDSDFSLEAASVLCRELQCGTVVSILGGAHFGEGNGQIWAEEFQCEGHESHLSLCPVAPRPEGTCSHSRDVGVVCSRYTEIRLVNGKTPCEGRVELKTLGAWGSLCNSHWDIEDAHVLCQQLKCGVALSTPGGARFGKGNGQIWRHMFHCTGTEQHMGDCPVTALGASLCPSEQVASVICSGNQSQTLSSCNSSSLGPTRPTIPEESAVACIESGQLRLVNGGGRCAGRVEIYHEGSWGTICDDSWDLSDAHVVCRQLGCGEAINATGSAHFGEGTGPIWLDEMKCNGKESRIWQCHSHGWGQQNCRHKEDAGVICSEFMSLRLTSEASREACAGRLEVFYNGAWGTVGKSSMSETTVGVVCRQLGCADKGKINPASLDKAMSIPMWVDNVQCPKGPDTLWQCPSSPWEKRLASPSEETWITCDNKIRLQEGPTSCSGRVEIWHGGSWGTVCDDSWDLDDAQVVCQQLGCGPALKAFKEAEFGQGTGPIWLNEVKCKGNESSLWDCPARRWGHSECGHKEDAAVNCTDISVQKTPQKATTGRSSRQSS
CD163-R809T-BAP (monomeric CD163 ectodomain) (Q86VB7-1, form named): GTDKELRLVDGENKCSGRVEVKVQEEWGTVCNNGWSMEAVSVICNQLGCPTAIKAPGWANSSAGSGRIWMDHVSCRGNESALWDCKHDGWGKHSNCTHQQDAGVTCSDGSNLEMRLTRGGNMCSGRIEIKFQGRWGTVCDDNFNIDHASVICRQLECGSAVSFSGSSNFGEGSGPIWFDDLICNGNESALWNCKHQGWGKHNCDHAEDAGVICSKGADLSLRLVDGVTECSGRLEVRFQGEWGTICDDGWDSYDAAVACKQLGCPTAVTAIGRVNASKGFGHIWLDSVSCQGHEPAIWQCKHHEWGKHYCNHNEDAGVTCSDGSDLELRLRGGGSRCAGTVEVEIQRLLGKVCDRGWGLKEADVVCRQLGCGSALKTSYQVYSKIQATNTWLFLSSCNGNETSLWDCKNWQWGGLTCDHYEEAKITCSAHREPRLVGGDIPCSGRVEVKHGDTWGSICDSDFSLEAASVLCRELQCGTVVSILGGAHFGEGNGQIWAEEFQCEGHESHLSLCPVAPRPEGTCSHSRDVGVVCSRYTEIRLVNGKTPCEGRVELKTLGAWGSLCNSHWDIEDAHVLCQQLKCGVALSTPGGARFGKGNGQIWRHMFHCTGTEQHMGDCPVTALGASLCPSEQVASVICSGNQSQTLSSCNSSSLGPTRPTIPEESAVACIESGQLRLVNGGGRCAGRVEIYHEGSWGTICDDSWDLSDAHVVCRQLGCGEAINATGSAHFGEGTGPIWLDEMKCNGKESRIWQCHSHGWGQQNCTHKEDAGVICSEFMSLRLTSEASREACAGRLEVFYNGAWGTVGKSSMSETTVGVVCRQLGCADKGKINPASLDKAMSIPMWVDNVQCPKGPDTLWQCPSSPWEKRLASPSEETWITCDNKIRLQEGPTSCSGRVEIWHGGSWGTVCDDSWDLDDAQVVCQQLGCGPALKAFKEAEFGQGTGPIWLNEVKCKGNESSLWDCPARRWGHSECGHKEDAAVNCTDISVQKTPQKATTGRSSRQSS

No constants are given. Whether binding was seen depends on the method and setting.

In assay [1] the target is CD163-R809T-BAP (monomeric CD163 ectodomain) (human) (UniProt Q86VB7). In words: SEC-MALLS; CD163-WT (3.47-24.2 μM monomer) or CD163-R809T-BAP (3.41 or 24.2 μM) alone, Superose 6, HBS pH 7.5 with […] calcium, room temperature; both purified.
Assay [2] concerns the target CD163 ectodomain (CD163-WT) (human) (UniProt Q86VB7). In words: SEC-MALLS; 3.47 μM CD163-WT with 1.18 μM Hp(1-1)Hb, HBS pH 7.5 without calcium, room temperature; both purified.
Assay [3] has the same target. In words: SEC-MALLS; 3.47 μM CD163-WT with 1.18 μM Hp(1-1)Hb, MBS pH 6.0 (20 mM MES), or MBS with […] CaCl2, room temperature; both purified.
For assay [4] the target is unchanged. As to the kind of experiment: condition: only with […] MgCl2 in place of CaCl2; SEC-MALLS; 3.47 μM CD163-WT with 1.18 μM Hp(1-1)Hb, HBS pH 7.5 with […] MgCl2 in place of CaCl2, room temperature; both purified.

In the case of “CD163-R809T-BAP (monomeric CD163 ectodomain) (from UniProt Q86VB7-1 46-1050) (domain or fragment)”, in assay [1], the binding result is “no binding (tested: 24.2 μM)”.
On to “CD163 ectodomain (CD163-WT) (from UniProt Q86VB7-1 46-1050) (domain or fragment)”, for which the figures for the binding result in assay [2], in assay [3] and in assay [4] were “no binding (condition: in the absence of calcium)”, “no binding (condition: at pH 6)” and “no binding”, respectively.
